Data from PubChem BioAssay AID2685 (National Center for Advancing Translational Sciences (NCATS), 2010).
Some of the results follow. These are further read-outs of the screen, such as a control signal, another cell line or another target. No call is given for them. The list favours compounds with an active or inconclusive main result. The note in brackets gives the kind of curve behind each potency; many fits are weak.

Assay: qHTS Assay for Lipid Storage Modulators in Drosophila S3 Cells;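 on cell number change: cells counted by Cell Tracker Red CMTPX staining in the red channel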
Conditions: BODIPY lipid droplet fluorescence, 18-24 h; for cell number change: measured here: cell count max response, cells fed with added oleic acid
Method in brief: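 Laser-scanning cytometry quantifies lipid droplet accumulation (500–530 nm total intensity; droplet/cell object ratio) in oleic acid-fed (400 uM added) Drosophila S3 cells treated with a concentration series. 20 uM Triacsin C defined 100% inhibition.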

[1] = measured here: lipid fluorescence (Fed channel) AC50, cells fed with added oleic acid
[2] = measured here: cell number channel AC50, cells fed with added oleic acid

Compound	cell number change [%]	AC50 [1]	AC50 [2]
O=c1c(-c2ccccc2)c(O)nc2ccccn12	-12	29.1 µM [rising, single point]	
CCOc1ccc(-n2c(C)c(C(C)=O)c3cc(OC(C)=O)ccc32)cc1	-19.9		
CCN(CC)CCNc1nc(-c2ccccc2)c2c(c1C#N)CC(C)(C)OC2	11.8	0.00461 µM [rising, full curve, poor fit]	
COCCCNC(=O)c1ccc(Cn2c(=O)c3ccccc3n(CC(=O)NCc3ccco3)c2=O)cc1	1.17	5.17 µM [rising, single point]	
COc1ccc(C2CC3(CC(C)(C)NC(=S)N3)Oc3cc(O)cc(C)c32)cc1OC (configuration not stated)	0.774	6.51 µM [falling, single point]	
Nc1c(NCc2ccccc2F)c(=O)[nH]c(=O)n1Cc1ccccc1	-10.2	11.6 µM [rising, single point]	
Cn1c(-c2ccccc2)nc2cnccc21	6.32		
COc1cc(OC)cc(C(=O)OCc2cc3ccccc3[nH]c2=O)c1	-5.68		0.291 µM [rising, partial curve, poor fit]
CCOC(=O)C1(Cc2ccc(Cl)cc2)CCN(C2CCC2)CC1	14.9	29.1 µM [rising, single point]	
CCC(c1nnnn1Cc1ccccc1)N1CCN(C(=O)c2ccco2)CC1 (configuration not stated)	-0.814		
O=C(Cn1cncn1)NCCC(c1ccccc1)c1ccccc1	-10.2	0.00461 µM [falling, full curve]	
Cn1c(SCc2ccccc2)nnc1-c1ccco1	-21.4	0.116 µM [falling, full curve, poor fit]	0.164 µM [falling, full curve, poor fit]
O=C(Cn1cc([N+](=O)[O-])ccc1=O)NCC1COc2ccccc2O1 (configuration not stated)	12.6	6.51 µM [falling, single point]	
O=C(c1c(F)cccc1F)N(Cc1ccccn1)C1CC1		29.1 µM [falling, single point]	
O=C(CSc1nc2[nH]ncc2c(=O)[nH]1)NCc1ccc(F)cc1	13.1		
CCOC(=O)C1CCN(Cc2ccc(O)c(OC)c2)CC1	2.41		
COc1ccc(OC)c(/C=N/N(CCC#N)C2=NS(=O)(=O)c3ccccc32)c1	19	29.1 µM [rising, single point]	
N#Cc1ccc(-c2cccnc2)nc1SCc1ccc(Cl)cc1Cl	-37.7		29.1 µM [falling, single point]
CC1=NN(C(=O)c2cc(C)nn2C)C(O)(C(F)(F)F)C1 (configuration not stated)	0.804	6.51 µM [falling, single point]	
Cc1ccc(S(=O)(=O)N[C@@H](CC(C)C)C(=O)N2CCC(C(=O)N[C@@H](Cc3ccccc3)C(=O)O)CC2)cc1	-21.7	8.2 µM [falling, partial curve]	
CCCCN(C)CCNS(=O)(=O)c1ccc2c(c1)n(C)c(=O)c(=O)n2C	20.5	0.231 µM [falling, full curve]	

Compound	cell number change [%]	AC50 [1]	AC50 [2]
COC(=O)N/N=C/c1sc(N2CCCCC2)nc1-c1cccs1	-39.3		25.9 µM [falling, single point]
O=C(O)COc1ccc(S(=O)(=O)c2ccc(OCC(=O)O)cc2)cc1	-8.71		
CC(=O)c1cc(C#N)c(NCCCN(C)C)nc1C	-6.67	0.164 µM [falling, full curve, poor fit]	
CC(C)(C)N=C1C([N+](=O)[O-])=CC=C2C1=NC1(CCCCC1)N2O	-46.7	6.51 µM [falling, full curve]	11.6 µM [falling, partial curve]
Cc1cccc(NC(=O)C2C3CCC4C(CCC32)C4(Cl)Cl)c1 (configuration not stated)	20	29.1 µM [falling, single point]	
O=C(CCCCCn1c(=S)[nH]c2ccc(Br)cc2c1=O)NCC1CCCO1 (configuration not stated)	-32.4	11.6 µM [rising, partial curve, poor fit]	29.1 µM [falling, single point]
CN1CCN(C2=Cc3ccccc3Sc3cc(F)ccc32)CC1	-36.1	23.1 µM [falling, single point]	23.1 µM [falling, single point]
O=C(Nc1ccc2nc[nH]c2c1)c1ccco1	-8.28	14.6 µM [rising, partial curve]	
COc1ccc(CC(NC(C)=O)C(=O)NC2CCN(C(=O)C3CCCCC3)CC2)cc1OC (configuration not stated)	8.97		
CCn1c(/C=C/c2ccc(F)cc2)nc2ccccc2c1=O	6.57		
O=C1c2ccncc2C(=O)N1C1CCCCC1	-2.34	6.51 µM [falling, single point]	
Cc1ccc(CN(Cc2ccco2)C(=S)Nc2ccccc2C)cc1			0.082 µM [rising, full curve, poor fit]
O=C(NC12CC3CC(CC(C3)C1)C2)c1ccc(-c2ccc(Br)cc2)o1	32.1		29.1 µM [rising, single point]
S=C(Nc1cccc2ccccc12)NC1CCCCC1	12.6	29.1 µM [rising, single point]	
O=C(NC1CC1)c1cccc(Nc2ccc(-c3ccc4c(c3)OCCO4)nn2)c1		6.51 µM [rising, partial curve]	6.51 µM [rising, single point]
O=[N+]([O-])c1cc(/C=N/NC(=S)Nc2ccccc2Cl)ccc1Cl	10.2		6.51 µM [rising, single point]
O=S(=O)(c1ccc(S(=O)(=O)N2CCN3CCCC3C2)cc1)N1CCCC1 (configuration not stated)	-14	3.66 µM [falling, full curve]	6.51 µM [falling, single point]
COc1ccc(OC)c(NS(=O)(=O)c2cc(OC)ccc2OC)c1	3.2	0.146 µM [rising, full curve]	
Cn1c(=O)[nH]c(=O)c2c1nc(SCCO)n2CCCc1ccccc1	-4.76	3.26 µM [rising, single point]	
C=CCn1c(N)cc(=O)nc1SCC(=O)NC(C)c1ccccc1 (configuration not stated)	10.4	0.13 µM [falling, full curve, poor fit]	

Some of the entries so far, with each value named.
CC(C)(C)N=C1C([N+](=O)[O-])=CC=C2C1=NC1(CCCCC1)N2O
  cell number change [%]: -46.7; AC50 [1]: 6.51 µM [falling, full curve]; AC50 [2]: 11.6 µM [falling, partial curve]
Cc1cccc(NC(=O)C2C3CCC4C(CCC32)C4(Cl)Cl)c1 (configuration not stated)
  cell number change [%]: 20; AC50 [1]: 29.1 µM [falling, single point]
O=C(CCCCCn1c(=S)[nH]c2ccc(Br)cc2c1=O)NCC1CCCO1 (configuration not stated)
  cell number change [%]: -32.4; AC50 [1]: 11.6 µM [rising, partial curve, poor fit]; AC50 [2]: 29.1 µM [falling, single point]
